Where no end group is shown, it is not given here.
Assay: peptide synthesis
Conditions: whole synthesis

For CAQGEPGVGFK, which “purity (crude or final not stated)” value is on record?
Its value is 94%.

From patent US11999770B2 (University of Bradford, priority 2016, dated 2024)
